Results reported in PMC3486646.

By UniProt entry, the sequences of proteins in these tests, tags left out. Residues count along the entry.
UniProt O95793, residues 82-577: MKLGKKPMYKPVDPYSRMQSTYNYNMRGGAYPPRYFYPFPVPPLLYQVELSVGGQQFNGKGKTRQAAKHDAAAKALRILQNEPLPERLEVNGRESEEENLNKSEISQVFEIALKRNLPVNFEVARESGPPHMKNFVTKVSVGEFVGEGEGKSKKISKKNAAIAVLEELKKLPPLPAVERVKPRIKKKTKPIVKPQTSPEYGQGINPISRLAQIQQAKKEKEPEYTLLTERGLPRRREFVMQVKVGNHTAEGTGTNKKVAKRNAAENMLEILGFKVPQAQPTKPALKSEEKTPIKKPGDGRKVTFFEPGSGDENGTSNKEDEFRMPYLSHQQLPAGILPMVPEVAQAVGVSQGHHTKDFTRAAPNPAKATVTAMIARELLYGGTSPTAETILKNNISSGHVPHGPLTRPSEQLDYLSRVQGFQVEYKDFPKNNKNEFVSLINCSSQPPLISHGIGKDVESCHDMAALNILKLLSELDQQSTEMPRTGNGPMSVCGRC

B1: Peroxiredoxin-6 (protein, UniProt P30041 1-224)
chain: MPGGLLLGDVAPNFEANTTVGRIRFHDFLGDSWGILFSHPRDFTPVCTTELGRAAKLAPEFAKRNVKLIALSIDSVEDHLAWSKDINAYNCEEPTEKLPFPIIDDRNRELAILLGMLDPAEKDEKGMPVTARVVFVFGPDKKLKLSILYPATTGRNFDEILRVVISLQLTAEKRVATPVDWKDGDSVMVLPTIPEEEAKKLFPKGVFTKELPSGKKYLRYTPQP
B2: Heterogeneous nuclear ribonucleoprotein H3 (protein, UniProt P31942 1-346)
chain: MDWVMKHNGPNDASDGTVRLRGLPFGCSKEEIVQFFQGLEIVPNGITLTMDYQGRSTGEAFVQFASKEIAENALGKHKERIGHRYIEIFRSSRSEIKGFYDPPRRLLGQRPGPYDRPIGGRGGYYGAGRGSMYDRMRRGGDGYDGGYGGFDDYGGYNNYGYGNDGFDDRMRDGRGMGGHGYGGAGDASSGFHGGHFVHMRGLPFRATENDIANFFSPLNPIRVHIDIGADGRATGEADVEFVTHEDAVAAMSKDKNNMQHRYIELFLNSTPGGGSGMGGSGMGGYGRDGMDNQGGYGSVGRMGMGNNYSGGYGTPDGLGGYGRGGGGSGGYYGQGGMSGGGWRGMY
B3: Double-stranded RNA-specific adenosine deaminase (protein, UniProt P55265 1-1226)
chain: MNPRQGYSLSGYYTHPFQGYEHRQLRYQQPGPGSSPSSFLLKQIEFLKGQLPEAPVIGKQTPSLPPSLPGLRPRFPVLLASSTRGRQVDIRGVPRGVHLRSQGLQRGFQHPSPRGRSLPQRGVDCLSSHFQELSIYQDQEQRILKFLEELGEGKATTAHDLSGKLGTPKKEINRVLYSLAKKGKLQKEAGTPPLWKIAVSTQAWNQHSGVVRPDGHSQGAPNSDPSLEPEDRNSTSVSEDLLEPFIAVSAQAWNQHSGVVRPDSHSQGSPNSDPGLEPEDSNSTSALEDPLEFLDMAEIKEKICDYLFNVSDSSALNLAKNIGLTKARDINAVLIDMERQGDVYRQGTTPPIWHLTDKKRERMQIKRNTNSVPETAPAAIPETKRNAEFLTCNIPTSNASNNMVTTEKVENGQEPVIKLENRQEARPEPARLKPPVHYNGPSKAGYVDFENGQWATDDIPDDLNSIRAAPGEFRAIMEMPSFYSHGLPRCSPYKKLTECQLKNPISGLLEYAQFASQTCEFNMIEQSGPPHEPRFKFQVVINGREFPPAEAGSKKVAKQDAAMKAMTILLEEAKAKDSGKSEESSHYSTEKESEKTAESQTPTPSATSFFSGKSPVTTLLECMHKLGNSCEFRLLSKEGPAHEPKFQYCVAVGAQTFPSVSAPSKKVAKQMAAEEAMKALHGEATNSMASDNQPEGMISESLDNLESMMPNKVRKIGELVRYLNTNPVGGLLEYARSHGFAAEFKLVDQSGPPHEPKFVYQAKVGGRWFPAVCAHSKKQGKQEAADAALRVLIGENEKAERMGFTEVTPVTGASLRRTMLLLSRSPEAQPKTLPLTGSTFHDQIAMLSHRCFNTLTNSFQPSLLGRKILAAIIMKKDSEDMGVVVSLGTGNRCVKGDSLSLKGETVNDCHAEIISRRGFIRFLYSELMKYNSQTAKDSIFEPAKGGEKLQIKKTVSFHLYISTAPCGDGALFDKSCSDRAMESTESRHYPVFENPKQGKLRTKVENGEGTIPVESSDIVPTWDGIRLGERLRTMSCSDKILRWNVLGLQGALLTHFLQPIYLKSVTLGYLFSQGHLTRAICCRVTRDGSAFEDGLRHPFIVNHPKVGRVSIYDSKRQSGKTKETSVNWCLADGYDLEILDGTRGTVDGPRNELSRVSKKNIFLLFKKLCSFRYRRDLLRLSYGEAKKAARDYETAKNYFKKGLKDMGYGNWISKPQEEKNFYLCPV
B4: Non-POU domain-containing octamer-binding protein (protein, UniProt Q15233 1-471)
chain: MQSNKTFNLEKQNHTPRKHHQHHHQQQHHQQQQQQPPPPPIPANGQQASSQNEGLTIDLKNFRKPGEKTFTQRSRLFVGNLPPDITEEEMRKLFEKYGKAGEVFIHKDKGFGFIRLETRTLAEIAKVELDNMPLRGKQLRVRFACHSASLTVRNLPQYVSNELLEEAFSVFGQVERAVVIVDDRGRPSGKGIVEFSGKPAARKALDRCSEGSFLLTTFPRPVTVEPMDQLDDEEGLPEKLVIKNQQFHKEREQPPRFAQPGSFEYEYAMRWKALIEMEKQQQDQVDRNIKEAREKLEMEMEAARHEHQVMLMRQDLMRRQEELRRMEELHNQEVQKRKQLELRQEEERRRREEEMRRQQEEMMRRQQEGFKGTFPDAREQEIRMGQMAMGGAMGINNRGAMPPAPVPAGTPAPPGPATMMPDGTLGLTPPTTERFGQAATMEGIGAIGGTPPAFNRAAPGAEFAPNKRRRY
B5: Mannosyl-oligosaccharide glucosidase (protein, UniProt Q13724 1-837)
chain: MARGERRRRAVPAEGVRTAERAARGGPGRRDGRGGGPRSTAGGVALAVVVLSLALGMSGRWVLAWYRARRAVTLHSAPPVLPADSSSPAVAPDLFWGTYRPHVYFGMKTRSPKPLLTGLMWAQQGTTPGTPKLRHTCEQGDGVGPYGWEFHDGLSFGRQHIQDGALRLTTEFVKRPGGQHGGDWSWRVTVEPQDSGTSALPLVSLFFYVVTDGKEVLLPEVGAKGQLKFISGHTSELGDFRFTLLPPTSPGDTAPKYGSYNVFWTSNPGLPLLTEMVKSRLNSWFQHRPPGAPPERYLGLPGSLKWEDRGPSGQGQGQFLIQQVTLKIPISIEFVFESGSAQAGGNQALPRLAGSLLTQALESHAEGFRERFEKTFQLKEKGLSSGEQVLGQAALSGLLGGIGYFYGQGLVLPDIGVEGSEQKVDPALFPPVPLFTAVPSRSFFPRGFLWDEGFHQLVVQRWDPSLTREALGHWLGLLNADGWIGREQILGDEARARVPPEFLVQRAVHANPPTLLLPVAHMLEVGDPDDLAFLRKALPRLHAWFSWLHQSQAGPLPLSYRWRGRDPALPTLLNPKTLPSGLDDYPRASHPSVTERHLDLRCWVALGARVLTRLAEHLGEAEVAAELGPLAASLEAAESLDELHWAPELGVFADFGNHTKAVQLKPRPPQGLVRVVGRPQPQLQYVDALGYVSLFPLLLRLLDPTSSRLGPLLDILADSRHLWSPFGLRSLAASSSFYGQRNSEHDPPYWRGAVWLNVNYLALGALHHYGHLEGPHQARAAKLHGELRANVVGNVWRQYQATGFLWEQYSDRDGRGMGCRPFHGWTSLVLLAMAEDY
B6: NF-kappaB repressing factor (protein, UniProt A3F768 1-690)
chain: MEKILQMAEGIDIGEMPSYDLVLSKPSKGQKRHLSTCDGQNPPKKQAGSKFHARPRFEPVHFVASSSKDEGQEDPYGPQTKEVNEQTHFASMPRDIYQDYTQDSFSIQDGNSQYCDSSGFILTKDQPVTANMYFDSGNPAPSTTSQQANSQSTPEPSPSQTFPESVVAEKQYFIEKLTATIWKNLSNPEMTSGSDKINYTYMLTRCIQACKTNPEYIYAPLKEIPPADIPKNKKLLTDGYACEVRCQNIYLTTGYAGSKNGSRDRATELAVKLLQKRIEVRVVRRKFKHTFGEDLVVCQIGMSSYEFPPALKPPEDLVVLGKDASGQPIFNASAKHWTNFVITENANDAIGILNNSASFNKMSIEYKYEMMPNRTWRCRVFLQDHCLAEGYGTKKTSKHAAADEALKILQKTQPTYPSVKSSQCHTGSSPRGSGKKKDIKDLVVYENSSNPVCTLNDTAQFNRMTVEYVYERMTGLRWKCKVILESEVIAEAVGVKKTVKYEAAGEAVKTLKKTQPTVINNLKKGAVEDVISRNEIQGRSAEEAYKQQIKEDNIGNQLLRKMGWTGGGLGKSGEGIREPISVKEQHKREGLGLDVERVNKIAKRDIEQIIRNYARSESHTDLTFSRELTNDERKQIHQIAQKYGLKSKSHGVGHDRYLVVGRKRRKEDLLDQLKQEGQVGHYELVMPQAN
B7: Heterogeneous nuclear ribonucleoprotein R (protein, UniProt O43390 1-633)
chain: MANQVNGNAVQLKEEEEPMDTSSVTHTEHYKTLIEAGLPQKVAERLDEIFQTGLVAYVDLDERAIDALREFNEEGALSVLQQFKESDLSHVQNKSAFLCGVMKTYRQREKQGSKVQESTKGPDEAKIKALLERTGYTLDVTTGQRKYGGPPPDSVYSGVQPGIGTEVFVGKIPRDLYEDELVPLFEKAGPIWDLRLMMDPLSGQNRGYAFITFCGKEAAQEAVKLCDSYEIRPGKHLGVCISVANNRLFVGSIPKNKTKENILEEFSKVTEGLVDVILYHQPDDKKKNRGFCFLEYEDHKSAAQARRRLMSGKVKVWGNVVTVEWADPVEEPDPEVMAKVKVLFVRNLATTVTEEILEKSFSEFGKLERVKKLKDYAFVHFEDRGAAVKAMDEMNGKEIEGEEIEIVLAKPPDKKRKERQAARQASRSTAYEDYYYHPPPRMPPPIRGRGRGGGRGGYGYPPDYYGYEDYYDDYYGYDYHDYRGGYEDPYYGYDDGYAVRGRGGGRGGRGAPPPPRGRGAPPPRGRAGYSQRGAPLGPPRGSRGGRGGPAQQQRGRGSRGSRGNRGGNVGGKRKADGYNQPDSKRRQTNNQQNWGSQPIAQQPLQQGGDYSGNYGYNNDNQEFYQDTYGQQWK
B8: Nuclear pore complex protein 155 (protein, UniProt O75694 1-1391)
chain: MPSSLLGAAMPASTSAAALQEALENAGRLIDRQLQEDRMYPDLSELLMVSAPNNPTVSGMSDMDYPLQGPGLLSVPNLPEISSIRRVPLPPELVEQFGHMQCNCMMGVFPPISRAWLTIDSDIFMWNYEDGGDLAYFDGLSETILAVGLVKPKAGIFQPHVRHLLVLATPVDIVILGLSYANLQTGSGVLNDSLSGGMQLLPDPLYSLPTDNTYLLTITSTDNGRIFLAGKDGCLYEVAYQAEAGWFSQRCRKINHSKSSLSFLVPSLLQFTFSEDDPILQIAIDNSRNILYTRSEKGVIQVYDLGQDGQGMSRVASVSQNAIVSAAGNIARTIDRSVFKPIVQIAVIENSESLDCQLLAVTHAGVRLYFSTCPFRQPLARPNTLTLVHVRLPPGFSASSTVEKPSKVHRALYSKGILLMAASENEDNDILWCVNHDTFPFQKPMMETQMTAGVDGHSWALSAIDELKVDKIITPLNKDHIPITDSPVVVQQHMLPPKKFVLLSAQGSLMFHKLRPVDQLRHLLVSNVGGDGEEIERFFKLHQEDQACATCLILACSTAACDREVSAWATRAFFRYGGEAQMRFPTTLPPPSNVGPILGSPVYSSSPVPSGSPYPNPSFLGTPSHGIQPPAMSTPVCALGNPATQATNMSCVTGPEIVYSGKHNGICIYFSRIMGNIWDASLVVERIFKSGNREITAIESSVPCQLLESVLQELKGLQEFLDRNSQFAGGPLGNPNTTAKVQQRLIGFMRPENGNPQQMQQELQRKFHEAQLSEKISLQAIQQLVRKSYQALALWKLLCEHQFTIIVAELQKELQEQLKITTFKDLVIRDKELTGALIASLINCYIRDNAAVDGISLHLQDICPLLYSTDDAICSKANELLQRSRQVQNKTEKERMLRESLKEYQKISNQVDLSNVCAQYRQVRFYEGVVELSLTAAEKKDPQGLGLHFYKHGEPEEDIVGLQAFQERLNSYKCITDTLQELVNQSKAAPQSPSVPKKPGPPVLSSDPNMLSNEEAGHHFEQMLKLSQRSKDELFSIALYNWLIQVDLADKLLQVASPFLEPHLVRMAKVDQNRVRYMDLLWRYYEKNRSFSNAARVLSRLADMHSTEISLQQRLEYIARAILSAKSSTAISSIAADGEFLHELEEKMEVARIQLQIQETLQRQYSHHSSVQDAVSQLDSELMDITKLYGEFADPFKLAECKLAIIHCAGYSDPILVQTLWQDIIEKELSDSVTLSSSDRMHALSLKIVLLGKIYAGTPRFFPLDFIVQFLEQQVCTLNWDVGFVIQTMNEIGVPLPRLLEVYDQLFKSRDPFWNRMKKPLHLLDCIHVLLIRYVENPSQVLNCERRRFTNLCLDAVCGYLVELQSMSSSVAVQAITGNFKSLQAKLERLH

The binders below were run against Staufen1-TAP (UniProt O95793) (assay: affinity purification with mass spectrometry; tandem affinity purification of Staufen1-TAP from lysates of stable 293T cells, mock or pNL4-3 transfected; eluates on SDS-PAGE, 23 gel slices, in gel trypsin digestion, LC-MS/MS; FDR less than 1%).

binding | Binder
binds | B1
binds | B2
binds | B3
binds | B4
binds | B5
binds | B6
binds | B7
binds | B8

Results are given in words; binding and its absence hold for the method and conditions named. In cells and extracts the contact can be indirect. A yes stands for co-enrichment or nearness to the bait. Other partners may have been found. Sequences can lack the tags named with a protein.
